PubChem BioAssay AID743121 | NCATS – 2013
The whole screen tested about 26,000 reagents; shown is an unselected part. 167 of them (0.63%) count as active. 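Calls are per gene from RSA p-values that are not deposited; an individual active-marked siRNA can sensitise only weakly.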 The numbers tell different reagents against one gene apart. Reagent sequences are not shown.

- Purpose: 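Knock-downs that sensitise breast cancer cells to camptothecin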 (primary screen)
- Cells: MDA-MB-231 cells, a human breast cancer line
- Knock-down reagent: single siRNA against human genes, 20 nM siRNA (0.8 pmol per well)
- Time to read-out: 120 h (drug added 48 h after transfection, read 72 h later)
- Conditions: camptothecin 20 nM (about EC30) for 72 h; vehicle 0.1% DMSO in parallel plates
- Measurement: 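Cell viability by ATP luminescence (CellTiter-Glo) as % of non-targeting siRNA wells, and the log2 ratio of viability without drug over viability with camptothecin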
- Scale: log2 vehicle/camptothecin viability: higher = stronger sensitisation to camptothecin; viability with camptothecin and viability without drug: higher = more viable cells
- Rule for the call: 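Active genes have an RSA gene-level p-value below 0.001, computed from the ratios of their separate siRNAs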

| gene | siRNA no. | log2 vehicle/camptothecin viability | viability with camptothecin (% of control) | viability without drug (% of control) | outcome |
| --- | --- | --- | --- | --- | --- |
| KITLG (GeneID 4254) | 1 | -0.0418 | 90.2 | 87.6 | inactive |
| KITLG (GeneID 4254) | 2 | -0.0134 | 87.9 | 87.1 | inactive |
| KITLG (GeneID 4254) | 3 | 0.0906 | 72.4 | 77.1 | inactive |
| KITLG (GeneID 4254) | 4 | -0.54 | 51.8 | 35.7 | inactive |
| CCL13 (GeneID 6357) | 1 | -0.495 | 114 | 80.9 | inactive |
| CCL13 (GeneID 6357) | 2 | -0.198 | 40.4 | 35.2 | inactive |
| CCL13 (GeneID 6357) | 3 | 0.264 | 79.6 | 95.6 | inactive |
| CCL13 (GeneID 6357) | 4 | -0.232 | 110 | 93.5 | inactive |
| XPNPEP2 (GeneID 7512) | 1 | -0.374 | 66.3 | 51.2 | inactive |
| XPNPEP2 (GeneID 7512) | 2 | -0.211 | 68.6 | 59.3 | inactive |
| XPNPEP2 (GeneID 7512) | 3 | 0.0537 | 99.8 | 104 | inactive |
| XPNPEP2 (GeneID 7512) | 4 | 0.0862 | 112 | 119 | inactive |
| VAV3 (GeneID 10451) | 1 | -0.0852 | 84.3 | 79.5 | inactive |
| VAV3 (GeneID 10451) | 2 | -0.125 | 103 | 94.5 | inactive |
| VAV3 (GeneID 10451) | 3 | -0.303 | 106 | 85.9 | inactive |
| VAV3 (GeneID 10451) | 4 | 0.295 | 42.9 | 52.6 | inactive |
| VAV3 (GeneID 10451) | 5 | 0.186 | 44.4 | 50.5 | inactive |
| VAV3 (GeneID 10451) | 6 | -0.133 | 98.1 | 89.4 | inactive |
| VAV3 (GeneID 10451) | 7 | 0.0637 | 82 | 85.7 | inactive |
| VAV3 (GeneID 10451) | 8 | -0.42 | 72.2 | 53.9 | inactive |
| BCL11B (GeneID 64919) | 1 | 0.199 | 68.8 | 78.9 | inactive |
| BCL11B (GeneID 64919) | 2 | -0.36 | 93 | 72.5 | inactive |
| BCL11B (GeneID 64919) | 3 | 1.06 | 13.3 | 27.7 | inactive |
| UBE4A (GeneID 9354) | 1 | -0.324 | 96.5 | 77.1 | inactive |
| UBE4A (GeneID 9354) | 2 | -0.696 | 53 | 32.7 | inactive |
| UBE4A (GeneID 9354) | 3 | -0.0767 | 71.1 | 67.4 | inactive |
| UBE4A (GeneID 9354) | 4 | -0.0373 | 69.3 | 67.6 | inactive |
| IL7R (GeneID 3575) | 1 | 0.0615 | 107 | 111 | inactive |
| IL7R (GeneID 3575) | 2 | -0.431 | 46.3 | 34.4 | inactive |
| IL7R (GeneID 3575) | 3 | -0.704 | 50.5 | 31 | inactive |
| IL7R (GeneID 3575) | 4 | 0.042 | 74.4 | 76.6 | inactive |

Continued, starting with the last 7 of the part before.
| gene | siRNA no. | log2 vehicle/camptothecin viability | viability with camptothecin (% of control) | viability without drug (% of control) | outcome |
| --- | --- | --- | --- | --- | --- |
| UBE4A (GeneID 9354) | 2 | -0.696 | 53 | 32.7 | inactive |
| UBE4A (GeneID 9354) | 3 | -0.0767 | 71.1 | 67.4 | inactive |
| UBE4A (GeneID 9354) | 4 | -0.0373 | 69.3 | 67.6 | inactive |
| IL7R (GeneID 3575) | 1 | 0.0615 | 107 | 111 | inactive |
| IL7R (GeneID 3575) | 2 | -0.431 | 46.3 | 34.4 | inactive |
| IL7R (GeneID 3575) | 3 | -0.704 | 50.5 | 31 | inactive |
| IL7R (GeneID 3575) | 4 | 0.042 | 74.4 | 76.6 | inactive |
| WDSUB1 (GeneID 151525) | 1 | 0.121 | 106 | 115 | inactive |
| WDSUB1 (GeneID 151525) | 2 | 0.0471 | 75.6 | 78.1 | inactive |
| WDSUB1 (GeneID 151525) | 3 | 0.176 | 40.4 | 45.6 | inactive |
| WDSUB1 (GeneID 151525) | 4 | -0.0429 | 106 | 103 | inactive |
| TMBIM6 (GeneID 7009) | 1 | 0.0403 | 89.5 | 92.1 | inactive |
| TMBIM6 (GeneID 7009) | 2 | -0.287 | 124 | 102 | inactive |
| TMBIM6 (GeneID 7009) | 3 | -0.142 | 108 | 97.9 | inactive |
| TMBIM6 (GeneID 7009) | 4 | 0.0812 | 46.8 | 49.5 | inactive |
| TINAG (GeneID 27283) | 1 | -0.17 | 115 | 102 | inactive |
| TINAG (GeneID 27283) | 2 | 0.0679 | 69.1 | 72.5 | inactive |
| TINAG (GeneID 27283) | 3 | 0.157 | 74.3 | 82.8 | inactive |
| TINAG (GeneID 27283) | 4 | -0.176 | 98 | 86.7 | inactive |
| GRIP2 (GeneID 80852) | 1 | 0.0287 | 51.9 | 53 | inactive |
| GRIP2 (GeneID 80852) | 2 | 0.279 | 41.7 | 50.6 | inactive |
| GRIP2 (GeneID 80852) | 3 | -0.0115 | 57.4 | 57 | inactive |
| ABCC11 (GeneID 85320) | 1 | -0.265 | 73.9 | 61.5 | inactive |
| ABCC11 (GeneID 85320) | 2 | -0.13 | 110 | 101 | inactive |
| ABCC11 (GeneID 85320) | 3 | 0.0787 | 48 | 50.7 | inactive |
| ABCC11 (GeneID 85320) | 4 | -0.505 | 61.3 | 43.2 | inactive |
| FBXO15 (GeneID 201456) | 1 | -0.157 | 95 | 85.2 | inactive |
| FBXO15 (GeneID 201456) | 2 | 0.462 | 49.8 | 68.6 | inactive |
| FBXO15 (GeneID 201456) | 3 | -0.471 | 80.6 | 58.1 | inactive |
| FBXO15 (GeneID 201456) | 4 | -0.107 | 101 | 93.8 | inactive |
| TLN2 (GeneID 83660) | 1 | -0.243 | 99.4 | 84 | inactive |
| TLN2 (GeneID 83660) | 2 | -0.515 | 55.9 | 39.1 | inactive |
| TLN2 (GeneID 83660) | 3 | -0.387 | 122 | 93 | inactive |
| TLN2 (GeneID 83660) | 4 | -0.19 | 103 | 90.6 | inactive |
| FAT2 (GeneID 2196) | 1 | -0.0969 | 106 | 99.5 | inactive |
| FAT2 (GeneID 2196) | 2 | 0.239 | 42.4 | 50 | inactive |
| FAT2 (GeneID 2196) | 3 | -0.201 | 89.5 | 77.8 | inactive |
| APOH (GeneID 350) | 1 | -0.104 | 85.5 | 79.5 | inactive |
| APOH (GeneID 350) | 2 | -0.395 | 50.4 | 38.3 | inactive |
| APOH (GeneID 350) | 3 | -0.115 | 58.6 | 54.1 | inactive |
| APOH (GeneID 350) | 4 | -0.247 | 86.9 | 73.3 | inactive |
| RNF39 (GeneID 80352) | 1 | 0.613 | 24.1 | 36.8 | inactive |
| RNF39 (GeneID 80352) | 2 | 0.0206 | 85 | 86.2 | inactive |
| RNF39 (GeneID 80352) | 3 | -0.16 | 109 | 97.6 | inactive |
